Test results taken from patent US20150258020A1, “CHEWABLE TABLETS COMPRISING LEVONORGESTREL” (priority 2014, published 2015).
At least one structure is not confirmed: it was looked up by name or label, or the drawing left a doubt.

Conditions: particle size by volume, laser light diffraction, dry dispersion

With C#C[C@]1(O)CC[C@H]2[C@@H]3CCC4=CC(=O)CC[C@@H]4[C@H]3CC[C@@]21CC [Levonorgestrel Standard micronization, Levonorgestrel] the D10 was 1.29 μm, the D50 was 6.02 μm and the D90 was 12.1 μm.
